Paper PMC11954719 (Cardiovascular Drugs and Therapy, 2023)

Tests used:
[1] = Phase I DDI trial, atorvastatin arm: plasma pharmacokinetics of atorvastatin and metabolites before and on day 5 of ritonavir; details: for Tmax: Median tmax (range); for Vd/F: Vz/F
[2] = design: species or system human; details: population PK estimate

With `CC(C)c1c(C(=O)Nc2ccccc2)c(-c2ccccc2)c(-c2ccc(F)cc2)n1CC[C@@H](O)C[C@@H](O)CC(=O)O` [Atorvastatin, atorvastatin, reference compound] the “AUC∞” value ([1]; Baseline, single dose 10 mg atorvastatin, plasma, geometric mean (95% CI), eight healthy volunteers) was 17.8 (13.0–24.4) h • ng/mL, the “increase of Cmax during ritonavir” value ([1]; fifth day of ritonavir (2 × 100 mg/day) vs baseline, 10 mg atorvastatin) was 3.78 fold and the AUC(0-inf) ([1]; human, plasma, oral, 10 mg) was 84.9 ng·h/mL. The Cmax ([1]; human, plasma, oral, 10 mg, Cmax, Day 5 of ritonavir (2 × 100 mg/day), single dose 10 mg atorvastatin, geometric mean (95% CI)) was 8.57 ng/mL, the Tmax ([1]; human, plasma, oral, 10 mg, Baseline, single dose 10 mg atorvastatin) was 1.25 h and the Tmax ([1]; human, plasma, oral, 10 mg, Day 5 of ritonavir (2 × 100 mg/day), single dose 10 mg atorvastatin) was 2 h. For the same compound, the Vd/F ([1]; human, plasma, oral, 10 mg, Baseline, single dose 10 mg atorvastatin, geometric mean (95% CI)) was 7350 L, the Vd/F ([1]; human, plasma, oral, 10 mg, Day 5 of ritonavir (2 × 100 mg/day), single dose 10 mg atorvastatin, geometric mean (95% CI)) was 1740 L and the “Vt/F (apparent volume of peripheral compartment)” value [2] was 4040 L. The “Vc/F (apparent volume of the central compartment)” value ([2]; IIV 89.5 CV %) was 2507 L.
